According to article PMC4813464:
These are yes or no findings as the source states them, for the method shown. Some entries that bind do so weakly or less than the wild type. Tags and fused reporters may be left off the sequences shown.

Sequences of proteins named here, by UniProt entry; tags and fusion partners are left off.
UniProt P04258: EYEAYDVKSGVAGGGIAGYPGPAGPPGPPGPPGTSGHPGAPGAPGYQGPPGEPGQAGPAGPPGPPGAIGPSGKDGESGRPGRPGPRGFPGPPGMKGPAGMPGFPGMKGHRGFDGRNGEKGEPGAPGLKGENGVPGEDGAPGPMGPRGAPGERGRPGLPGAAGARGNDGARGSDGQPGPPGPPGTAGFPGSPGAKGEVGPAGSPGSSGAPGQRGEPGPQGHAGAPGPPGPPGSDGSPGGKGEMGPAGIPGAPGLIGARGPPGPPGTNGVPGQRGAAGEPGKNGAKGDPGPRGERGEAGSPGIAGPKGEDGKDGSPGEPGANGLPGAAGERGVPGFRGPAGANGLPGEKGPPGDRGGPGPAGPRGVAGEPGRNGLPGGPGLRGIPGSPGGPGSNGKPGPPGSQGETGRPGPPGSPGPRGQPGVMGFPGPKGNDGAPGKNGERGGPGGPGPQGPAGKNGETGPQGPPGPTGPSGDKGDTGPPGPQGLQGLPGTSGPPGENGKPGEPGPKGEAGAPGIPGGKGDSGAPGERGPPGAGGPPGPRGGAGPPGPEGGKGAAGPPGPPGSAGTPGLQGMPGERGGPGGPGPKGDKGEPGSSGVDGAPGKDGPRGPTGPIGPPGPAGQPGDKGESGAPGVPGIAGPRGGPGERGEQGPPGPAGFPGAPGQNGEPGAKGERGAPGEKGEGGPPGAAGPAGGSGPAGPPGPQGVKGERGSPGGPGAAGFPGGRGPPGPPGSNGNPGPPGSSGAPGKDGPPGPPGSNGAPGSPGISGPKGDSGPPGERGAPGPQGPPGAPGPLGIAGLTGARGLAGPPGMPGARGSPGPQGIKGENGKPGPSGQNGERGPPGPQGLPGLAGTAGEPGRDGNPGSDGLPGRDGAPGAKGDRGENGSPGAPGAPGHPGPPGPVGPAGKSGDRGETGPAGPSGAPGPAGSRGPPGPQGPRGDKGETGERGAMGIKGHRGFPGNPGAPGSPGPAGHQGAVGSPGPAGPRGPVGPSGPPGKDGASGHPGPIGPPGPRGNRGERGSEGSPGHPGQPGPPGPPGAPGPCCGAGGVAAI

Assays:
[1] = target: Triple-helical peptide GPC(GPP)5-GPRGQOGVMGFO-(GPP)5GPC-NH2 (human); assay: ELISA; solid-phase binding assay: triple-helical peptides coated at 10 μg/ml on 96-well plates; DDR1-Fc or DDR2-Fc added for 3 h; anti-human Fc-HRP detection, A492; one-site fit; both purified
[2] = target: Triple-helical peptide GPC(GPP)5-GPRGQOGVMGFP-(GPP)5GPC-NH2 (human); assay: as above
[3] = target: Triple-helical peptide GPC(GPP)5-…O-(GPP)5GPC-NH2 (human); assay: as above
[4] = target: Collagen type III, pepsin-extracted from bovine skin (bovine) (UniProt P04258); assay: ELISA; competitive solid-phase binding assay: bovine collagen type III coated at 10 μg/ml; DDR-Fc at 3 μg/ml (43 nM) pre-incubated 1 h at room temperature with collagen samples at 0, 0.3, 1.3, 5 and 10 μM, then 3 h on the plate; anti-Fc detection, A450; both purified

Measured: binding

B1: DDR2-Fc (recombinant human discoidin domain receptor 2 ectodomain, Fc-tagged) (Fc fusion, UniProt Q16832 22-399)
chain: KAQVNPAICRYPLGMSGGQIPDEDITASSQWSESTAAKYGRLDSEEGDGAWCPEIPVEPDDLKEFLQIDLHTLHFITLVGTQGRHAGGHGIEFAPMYKINYSRDGTRWISWRNRHGKQVLDGNSNPYDIFLKDLEPPIVARFVRFIPVTDHSMNVCMRVELYGCVWLDGLVSYNAPAGQQFVLPGGSIIYLNDSVYDGAVGYSMTEGLGQLTDGVSGLDDFTQTHEYHVWPGYDYVGWRNESATNGYIEIMFEFDRIRNFTTMKVHCNNMFAKGVKIFKEVQCYFRSEASEWEPNAISFPLVLDDVNPSARFVTVPLHHRMASAIKCQYHFADTWMMFSEITFQSDAAMYNNSEALPTSPMAPTTYDPMLKVDDSNTR
binds: all assays above
